Results from the supplement of paper PMC10849652.
This is one part of the list.

The chains behind the UniProt entries cited, without tags or fusion partners. Where a name states a change or a piece, a line headed by the entry shows the natural chain unless it says otherwise.
UniProt P49736, whole entry, looked up: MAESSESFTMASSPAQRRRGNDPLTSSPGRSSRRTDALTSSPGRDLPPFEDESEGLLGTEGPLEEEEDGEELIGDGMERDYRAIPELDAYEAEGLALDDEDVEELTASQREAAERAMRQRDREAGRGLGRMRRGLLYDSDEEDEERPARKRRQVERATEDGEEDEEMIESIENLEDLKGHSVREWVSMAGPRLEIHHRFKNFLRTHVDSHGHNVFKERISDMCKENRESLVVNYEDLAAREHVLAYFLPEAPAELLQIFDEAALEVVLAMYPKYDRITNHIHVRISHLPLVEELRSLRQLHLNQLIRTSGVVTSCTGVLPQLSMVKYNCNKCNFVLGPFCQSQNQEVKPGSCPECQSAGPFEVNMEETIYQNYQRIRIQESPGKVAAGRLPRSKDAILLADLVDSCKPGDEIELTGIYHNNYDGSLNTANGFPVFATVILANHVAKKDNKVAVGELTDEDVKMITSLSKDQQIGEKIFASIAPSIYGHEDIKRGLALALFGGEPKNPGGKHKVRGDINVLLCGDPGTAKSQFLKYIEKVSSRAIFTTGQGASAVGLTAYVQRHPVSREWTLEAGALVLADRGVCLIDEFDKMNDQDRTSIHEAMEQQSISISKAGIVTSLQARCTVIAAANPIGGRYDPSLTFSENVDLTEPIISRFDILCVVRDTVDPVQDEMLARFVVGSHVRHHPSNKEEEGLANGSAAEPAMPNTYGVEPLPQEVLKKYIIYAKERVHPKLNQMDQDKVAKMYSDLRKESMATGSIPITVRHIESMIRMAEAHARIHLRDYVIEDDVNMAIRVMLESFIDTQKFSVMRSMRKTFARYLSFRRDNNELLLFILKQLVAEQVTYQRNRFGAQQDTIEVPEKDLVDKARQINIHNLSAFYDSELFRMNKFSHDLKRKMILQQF
UniProt Q10469: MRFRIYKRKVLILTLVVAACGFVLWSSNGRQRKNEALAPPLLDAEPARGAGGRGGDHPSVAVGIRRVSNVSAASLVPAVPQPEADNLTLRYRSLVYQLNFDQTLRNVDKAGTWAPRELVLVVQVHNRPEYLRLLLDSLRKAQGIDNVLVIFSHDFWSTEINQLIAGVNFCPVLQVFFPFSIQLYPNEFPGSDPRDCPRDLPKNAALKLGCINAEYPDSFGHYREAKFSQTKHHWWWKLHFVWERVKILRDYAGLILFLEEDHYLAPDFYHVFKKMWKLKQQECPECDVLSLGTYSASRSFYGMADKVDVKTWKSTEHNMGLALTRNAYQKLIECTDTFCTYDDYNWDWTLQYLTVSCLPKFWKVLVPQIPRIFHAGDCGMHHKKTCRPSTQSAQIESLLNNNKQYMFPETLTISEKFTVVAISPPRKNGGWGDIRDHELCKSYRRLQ
UniProt Q96GW9: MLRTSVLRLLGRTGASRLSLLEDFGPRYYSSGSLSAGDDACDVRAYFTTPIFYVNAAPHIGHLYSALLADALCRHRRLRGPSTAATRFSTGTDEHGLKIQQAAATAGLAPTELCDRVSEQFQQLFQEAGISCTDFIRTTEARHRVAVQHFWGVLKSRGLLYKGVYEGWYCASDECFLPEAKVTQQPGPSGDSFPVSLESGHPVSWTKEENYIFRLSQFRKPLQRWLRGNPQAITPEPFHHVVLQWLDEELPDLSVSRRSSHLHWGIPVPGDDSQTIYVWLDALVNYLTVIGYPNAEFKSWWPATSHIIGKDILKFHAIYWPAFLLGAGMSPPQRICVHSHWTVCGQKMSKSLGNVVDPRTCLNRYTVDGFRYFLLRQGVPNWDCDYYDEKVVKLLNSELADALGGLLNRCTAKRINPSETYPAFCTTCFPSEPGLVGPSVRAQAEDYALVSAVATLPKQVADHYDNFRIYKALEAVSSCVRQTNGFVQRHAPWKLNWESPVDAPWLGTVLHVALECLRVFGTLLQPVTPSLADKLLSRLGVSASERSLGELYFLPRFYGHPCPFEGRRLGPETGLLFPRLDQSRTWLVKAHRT
UniProt Q9BUE0: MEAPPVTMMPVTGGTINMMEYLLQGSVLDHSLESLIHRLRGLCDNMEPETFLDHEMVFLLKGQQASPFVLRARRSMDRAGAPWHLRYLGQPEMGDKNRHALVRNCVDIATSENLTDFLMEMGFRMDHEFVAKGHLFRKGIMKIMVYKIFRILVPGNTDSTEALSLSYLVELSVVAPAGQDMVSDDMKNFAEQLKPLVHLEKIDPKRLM
UniProt Q96N66: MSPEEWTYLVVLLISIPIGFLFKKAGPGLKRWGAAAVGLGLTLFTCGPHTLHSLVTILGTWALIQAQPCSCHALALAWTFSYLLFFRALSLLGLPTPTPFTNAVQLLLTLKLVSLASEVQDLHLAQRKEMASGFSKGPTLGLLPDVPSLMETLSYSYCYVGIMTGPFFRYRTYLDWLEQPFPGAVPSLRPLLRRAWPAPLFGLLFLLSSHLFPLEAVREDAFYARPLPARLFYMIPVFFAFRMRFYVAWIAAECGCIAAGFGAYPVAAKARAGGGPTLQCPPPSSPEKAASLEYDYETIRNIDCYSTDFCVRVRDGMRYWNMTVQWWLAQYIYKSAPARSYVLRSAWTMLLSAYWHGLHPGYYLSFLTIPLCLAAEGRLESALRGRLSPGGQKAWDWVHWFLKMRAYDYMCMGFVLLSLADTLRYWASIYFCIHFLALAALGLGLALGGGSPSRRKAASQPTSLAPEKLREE
UniProt P23368: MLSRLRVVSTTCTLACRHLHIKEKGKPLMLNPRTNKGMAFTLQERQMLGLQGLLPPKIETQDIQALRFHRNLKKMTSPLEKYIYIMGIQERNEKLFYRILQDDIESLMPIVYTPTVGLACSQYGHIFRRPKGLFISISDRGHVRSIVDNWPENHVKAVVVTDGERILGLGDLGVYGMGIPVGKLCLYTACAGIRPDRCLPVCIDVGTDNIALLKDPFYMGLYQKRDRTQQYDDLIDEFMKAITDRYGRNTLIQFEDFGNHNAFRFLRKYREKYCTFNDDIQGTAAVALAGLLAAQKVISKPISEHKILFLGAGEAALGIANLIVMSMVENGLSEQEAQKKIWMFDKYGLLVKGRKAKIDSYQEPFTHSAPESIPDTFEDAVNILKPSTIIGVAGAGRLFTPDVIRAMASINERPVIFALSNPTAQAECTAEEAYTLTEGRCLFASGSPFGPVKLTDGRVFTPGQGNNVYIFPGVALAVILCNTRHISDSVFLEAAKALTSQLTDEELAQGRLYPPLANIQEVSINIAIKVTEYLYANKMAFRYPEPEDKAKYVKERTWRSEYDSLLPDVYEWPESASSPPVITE
UniProt P26572: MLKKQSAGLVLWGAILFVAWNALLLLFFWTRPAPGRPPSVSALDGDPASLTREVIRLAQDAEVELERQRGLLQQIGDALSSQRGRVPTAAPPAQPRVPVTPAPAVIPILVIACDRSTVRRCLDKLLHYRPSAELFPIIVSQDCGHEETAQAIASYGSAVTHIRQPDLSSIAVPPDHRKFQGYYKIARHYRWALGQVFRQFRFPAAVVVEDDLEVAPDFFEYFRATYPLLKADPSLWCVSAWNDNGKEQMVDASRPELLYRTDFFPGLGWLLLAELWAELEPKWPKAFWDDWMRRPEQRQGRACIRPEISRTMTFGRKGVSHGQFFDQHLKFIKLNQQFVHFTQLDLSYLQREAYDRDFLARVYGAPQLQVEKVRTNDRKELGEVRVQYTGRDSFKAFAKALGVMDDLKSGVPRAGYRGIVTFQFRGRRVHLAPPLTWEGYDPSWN
UniProt Q14814: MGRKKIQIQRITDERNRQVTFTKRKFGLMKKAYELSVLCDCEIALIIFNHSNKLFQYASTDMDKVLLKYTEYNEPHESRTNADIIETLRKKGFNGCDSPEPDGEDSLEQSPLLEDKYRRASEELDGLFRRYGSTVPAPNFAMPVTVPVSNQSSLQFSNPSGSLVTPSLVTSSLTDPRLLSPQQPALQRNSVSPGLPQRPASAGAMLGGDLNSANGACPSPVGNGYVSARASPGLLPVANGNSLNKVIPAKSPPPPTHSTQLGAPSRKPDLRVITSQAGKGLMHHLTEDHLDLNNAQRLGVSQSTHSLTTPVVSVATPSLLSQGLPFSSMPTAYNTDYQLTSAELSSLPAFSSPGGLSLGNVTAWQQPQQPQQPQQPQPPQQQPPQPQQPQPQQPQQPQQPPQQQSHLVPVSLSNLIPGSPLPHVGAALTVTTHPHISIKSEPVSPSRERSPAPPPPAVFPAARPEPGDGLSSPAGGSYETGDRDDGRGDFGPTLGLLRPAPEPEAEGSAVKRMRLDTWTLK
UniProt P31153, whole entry, looked up: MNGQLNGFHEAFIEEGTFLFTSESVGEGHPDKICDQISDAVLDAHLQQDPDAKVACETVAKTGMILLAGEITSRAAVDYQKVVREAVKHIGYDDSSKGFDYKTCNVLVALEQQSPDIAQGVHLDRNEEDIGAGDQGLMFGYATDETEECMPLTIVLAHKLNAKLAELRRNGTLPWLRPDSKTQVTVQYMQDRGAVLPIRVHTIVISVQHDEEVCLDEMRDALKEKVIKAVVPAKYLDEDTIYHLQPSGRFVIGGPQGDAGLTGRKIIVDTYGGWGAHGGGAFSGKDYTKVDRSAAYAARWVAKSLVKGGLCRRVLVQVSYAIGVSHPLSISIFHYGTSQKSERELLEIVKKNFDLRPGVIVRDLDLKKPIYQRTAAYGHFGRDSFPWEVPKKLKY
UniProt Q96GX5: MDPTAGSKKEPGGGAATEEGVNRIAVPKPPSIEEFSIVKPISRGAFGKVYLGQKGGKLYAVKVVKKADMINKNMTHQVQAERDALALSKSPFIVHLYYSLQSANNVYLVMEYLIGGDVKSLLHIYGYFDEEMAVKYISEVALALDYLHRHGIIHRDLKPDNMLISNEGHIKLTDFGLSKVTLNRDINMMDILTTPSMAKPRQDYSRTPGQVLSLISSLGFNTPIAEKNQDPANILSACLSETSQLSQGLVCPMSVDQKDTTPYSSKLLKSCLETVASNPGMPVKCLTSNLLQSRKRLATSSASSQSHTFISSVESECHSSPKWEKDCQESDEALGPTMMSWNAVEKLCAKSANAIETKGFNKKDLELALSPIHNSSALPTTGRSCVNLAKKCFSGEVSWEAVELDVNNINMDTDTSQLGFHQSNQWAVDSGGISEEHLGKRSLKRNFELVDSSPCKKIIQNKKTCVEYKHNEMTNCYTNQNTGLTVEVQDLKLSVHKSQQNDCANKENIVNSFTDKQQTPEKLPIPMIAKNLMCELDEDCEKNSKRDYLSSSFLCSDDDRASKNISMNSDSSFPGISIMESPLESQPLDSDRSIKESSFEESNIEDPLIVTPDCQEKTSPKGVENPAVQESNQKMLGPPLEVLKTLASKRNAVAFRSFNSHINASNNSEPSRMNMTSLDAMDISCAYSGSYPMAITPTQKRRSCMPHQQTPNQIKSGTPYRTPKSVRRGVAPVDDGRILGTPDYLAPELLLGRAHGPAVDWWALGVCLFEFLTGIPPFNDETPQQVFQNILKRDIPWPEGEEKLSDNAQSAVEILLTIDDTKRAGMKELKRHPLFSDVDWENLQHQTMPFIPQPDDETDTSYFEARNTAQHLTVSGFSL
UniProt Q86V88: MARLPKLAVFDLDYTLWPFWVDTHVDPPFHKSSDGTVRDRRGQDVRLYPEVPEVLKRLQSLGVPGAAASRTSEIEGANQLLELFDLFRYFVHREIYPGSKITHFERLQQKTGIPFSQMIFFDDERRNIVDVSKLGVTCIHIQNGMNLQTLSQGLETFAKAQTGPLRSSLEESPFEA
UniProt P48163: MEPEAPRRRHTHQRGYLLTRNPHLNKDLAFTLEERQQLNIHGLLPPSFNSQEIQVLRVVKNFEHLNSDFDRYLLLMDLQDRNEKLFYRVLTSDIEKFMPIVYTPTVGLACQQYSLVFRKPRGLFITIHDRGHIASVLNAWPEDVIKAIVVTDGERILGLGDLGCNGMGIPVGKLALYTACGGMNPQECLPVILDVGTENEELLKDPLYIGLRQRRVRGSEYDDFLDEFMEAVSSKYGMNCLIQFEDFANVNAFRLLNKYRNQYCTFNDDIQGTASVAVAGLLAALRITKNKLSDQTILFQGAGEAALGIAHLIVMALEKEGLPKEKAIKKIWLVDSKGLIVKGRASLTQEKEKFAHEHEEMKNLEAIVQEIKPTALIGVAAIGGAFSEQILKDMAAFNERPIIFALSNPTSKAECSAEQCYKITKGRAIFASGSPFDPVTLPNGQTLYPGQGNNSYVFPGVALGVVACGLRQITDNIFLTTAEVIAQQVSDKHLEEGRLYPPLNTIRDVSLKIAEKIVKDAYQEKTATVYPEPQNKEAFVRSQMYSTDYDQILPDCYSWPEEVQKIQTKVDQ
UniProt Q9BV79: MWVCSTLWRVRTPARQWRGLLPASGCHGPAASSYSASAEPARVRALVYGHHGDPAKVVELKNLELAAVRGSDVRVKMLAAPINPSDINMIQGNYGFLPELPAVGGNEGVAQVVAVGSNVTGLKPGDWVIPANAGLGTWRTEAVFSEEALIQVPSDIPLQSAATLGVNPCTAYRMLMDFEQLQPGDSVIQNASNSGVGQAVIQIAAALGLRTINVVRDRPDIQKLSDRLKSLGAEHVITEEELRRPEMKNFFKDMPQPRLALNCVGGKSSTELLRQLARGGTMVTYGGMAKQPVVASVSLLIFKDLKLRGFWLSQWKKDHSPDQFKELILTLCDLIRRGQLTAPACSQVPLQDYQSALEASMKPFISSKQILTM

Assays:
Test in all cases: log2 fold change, soluble protein after heating vs DMSO (PISA); higher = thermal stabilisation; K562 cells, 10 uM, 30 min; active = over 0.2 and 3.5 SD of the protein, either way, in both replicates (recomputed)
[1] = compound: C1=CC=C(C=C1)[C@H](COC2=CC3=C(C=C2)NC(=O)N3)NC(=O)C4=CC=CN(C4=O)CC5=CC(=C(C=C5)F)F
Summary of the method: (§1)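 Aliquots of K562 cells (2×10^6 cells/mL) treated with 10 μM compound for 30 min were heated for 3 min over 48°C-58°C. After pooling and extraction in PBS with 0.5% NP-40 at 4°C, soluble protein from a 21,000xg, 90 min spin was quantified by TMTpro 16plex LC-MS/MS with channel sums equalised. Thermal stability is expressed against control samples, from duplicates, as a log2 fold change.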

[2] = compound: CC1=C(SC2=C1C(=N[C@H](C3=NN=C(N32)C)CC(=O)N)C4=CC=C(C=C4)Cl)C
Summary of the method: as §1

[3] = compound: CC1=C2C(=CC=C1)N=C(N(C2=O)C3=CC=CC=C3C)CN4C=NC5=C(N=CN=C54)N
Summary of the method: as §1

[4] = compound: Cc1sc2c(c1C)C(c1ccc(Cl)cc1)=N[C@@H](CC(=O)OC(C)(C)C)c1nnc(C)n1-2
Summary of the method: as §1

[5] = compound: c1ccc([C@@H]2C[C@H]2NC2CCNCC2)cc1
Summary of the method: as §1

Measured: log2 fold change

MCM2 (UniProt P49736)
inactive: [1] -0.049 | [2] 0.048 | [3] 0.036 | [4] -0.029 | [5] -0.03

MGAT2 (UniProt Q10469)
inactive: [1] 0.02 | [2] 0.03 | [3] 0.087 | [4] -0.041 | [5] 0.028

MED16 (UniProt Q9Y2X0)
inactive: [1] -0.048 | [2] 0.012 | [3] 0.043 | [4] 0.093 | [5] 0.019

METTL21A (UniProt Q8WXB1)
inactive: [1] -0.028 | [2] -0.009 | [3] 0.001 | [4] -0.182 | [5] 0.02

MESD (UniProt Q14696)
inactive: [1] 0.011 | [2] 0.021 | [3] 0.029 | [4] 0.004 | [5] 0.001

MFHAS1 (UniProt Q9Y4C4)
inactive: [1] -0.016 | [2] 0.138 | [3] 0.049 | [4] 0.246 | [5] 0.092

MCM4 (UniProt P33991)
inactive: [1] -0.029 | [2] 0.063 | [3] 0.049 | [4] -0.034 | [5] -0.07

MFSD10 (UniProt Q14728)
inactive: [1] 0.041 | [2] -0.05 | [3] 0.131 | [4] -0.038 | [5] 0.019

MFSD1 isoform 6 (UniProt Q9H3U5)
inactive: [1] 0.001 | [2] 0.045 | [3] 0.043 | [4] -0.029 | [5] 0.039

MGST2 (UniProt Q99735)
inactive: [1] -0.081 | [2] -0.294 | [3] -0.025 | [4] -0.011 | [5] 0.034

MCCC2 (UniProt Q9HCC0)
inactive: [1] 0.029 | [2] 0.038 | [3] -0.027 | [4] -0.022 | [5] 0.026

MBTPS1 (UniProt Q14703)
inactive: [1] 0.162 | [2] 0 | [3] -0.043 | [4] 0.023 | [5] 0.102

MFF (UniProt Q9GZY8)
inactive: [1] -0.013 | [2] 0.041 | [3] 0.064 | [4] -0.017 | [5] -0.001

MCAM (UniProt P43121)
inactive: [1] -0.002 | [2] 0.014 | [3] 0.077 | [4] 0.005 | [5] 0.012

MARS2 (UniProt Q96GW9)
inactive: [1] 0.035 | [2] 0.012 | [3] 0.071 | [4] -0.025 | [5] 0.054

MAT2B (UniProt Q9NZL9)
inactive: [1] 0.003 | [2] 0.013 | [3] 0.106 | [4] -0.033 | [5] 0.023

MED7 (UniProt O43513)
inactive: [1] -0.049 | [2] 0.029 | [3] 0.017 | [4] 0.016 | [5] 0.076

MCEE (UniProt Q96PE7)
inactive: [1] 0.022 | [2] 0.161 | [3] 0.064 | [4] -0.16 | [5] 0.084

MED18 (UniProt Q9BUE0)
inactive: [1] -0.001 | [2] 0.159 | [3] 0.052 | [4] -0.018 | [5] 0.039

MBOAT7 (UniProt Q96N66)
inactive: [1] 0.033 | [2] 0.014 | [3] 0.05 | [4] -0.035 | [5] 0.035

MCAT (UniProt Q8IVS2)
inactive: [1] -0.01 | [2] -0.092 | [3] 0.011 | [4] 0.039 | [5] -0.008

MFAP1 (UniProt P55081)
inactive: [1] 0.052 | [2] -0.047 | [3] -0.024 | [4] -0.037 | [5] 0.012

MCUR1 (UniProt Q96AQ8)
inactive: [1] -0.02 | [2] 0.018 | [3] 0.007 | [4] -0.008 | [5] -0.023

MEPCE (UniProt Q7L2J0)
inactive: [1] 0.017 | [2] 0.001 | [3] 0.064 | [4] 0.028 | [5] 0.008

MGME1 (UniProt Q9BQP7)
inactive: [1] -0.004 | [2] 0.025 | [3] 0.008 | [4] -0.005 | [5] 0.028

MCUB (UniProt Q9NWR8)
inactive: [1] -0.085 | [2] 0.032 | [3] 0.032 | [4] -0.018 | [5] -0.091

Reprinted at random: 2 entries already listed
MCUB (UniProt Q9NWR8)
inactive: [1] -0.085 | [2] 0.032 | [3] 0.032 | [4] -0.018 | [5] -0.091

MEPCE (UniProt Q7L2J0)
inactive: [1] 0.017 | [2] 0.001 | [3] 0.064 | [4] 0.028 | [5] 0.008

Later entries.

ME2 (UniProt P23368)
inactive: [1] 0.046 | [2] 0.073 | [3] 0.078 | [4] -0.086 | [5] 0.09

MGAT1 (UniProt P26572)
inactive: [1] -0.029 | [2] 0.045 | [3] 0.061 | [4] 0.021 | [5] -0.025

MEF2D (UniProt Q14814)
inactive: [1] 0.061 | [2] 0.035 | [3] 0.198 | [4] -0.022 | [5] 0.068

MFSD6 (UniProt Q6ZSS7)
inactive: [1] 0.008 | [2] 0.001 | [3] -0.113 | [5] -0.08

METAP1D (UniProt Q6UB28)
inactive: [1] 0.106 | [2] -0.125 | [3] 0.083 | [4] 0.08 | [5] 0.127

METTL7A (UniProt Q9H8H3)
inactive: [1] 0.056 | [2] 0.049 | [3] 0.021 | [4] -0.05 | [5] 0.009

MBOAT2 (UniProt Q6ZWT7)
inactive: [1] -0.03 | [2] 0.106 | [3] -0.042 | [4] -0.056 | [5] 0.063

MED4 (UniProt Q9NPJ6)
inactive: [1] -0.038 | [2] 0.008 | [3] 0.025 | [4] -0.071 | [5] -0.029

MED14 (UniProt O60244)
inactive: [1] -0.188 | [2] 0.043 | [3] 0.132 | [4] 0.175 | [5] -0.112

MIA2 (UniProt Q96PC5)
inactive: [1] -0.036 | [2] 0.041 | [3] 0.02 | [4] 0.029 | [5] 0.027

MCTS1 isoform 3 (UniProt Q9ULC4)
inactive: [1] 0.008 | [2] 0.013 | [3] 0.015 | [4] 0.021 | [5] -0.017

MBLAC1 (UniProt A4D2B0)
inactive: [1] -0.019 | [2] 0.067 | [3] -0.064 | [5] -0.029

METTL5 (UniProt Q9NRN9)
inactive: [1] 0.025 | [2] 0.037 | [3] 0.037 | [4] -0.004 | [5] 0.037

METTL16 (UniProt Q86W50)
inactive: [1] 0.047 | [2] -0.038 | [3] 0.057 | [4] -0.033 | [5] 0.021

MEF2C isoform 5 (UniProt Q06413)
inactive: [1] 0.051 | [2] 0.04 | [3] -0.124 | [4] 0.064 | [5] 0.154

MAT2A (UniProt P31153)
inactive: [1] 0.007 | [2] -0.011 | [3] -0.031 | [4] 0.024 | [5] 0.038

MIA3 (UniProt Q5JRA6)
inactive: [1] -0.011 | [2] -0.018 | [3] 0.047 | [4] 0.008 | [5] 0.036

MBLAC2 (UniProt Q68D91)
inactive: [1] -0.02 | [2] 0.006 | [3] 0.056 | [4] -0.042 | [5] 0.009

MASTL (UniProt Q96GX5)
inactive: [1] 0.047 | [2] 0.081 | [3] 0.009 | [5] -0.02

MELK (UniProt Q14680)
inactive: [1] 0.044 | [2] -0.057 | [4] 0.197 | [5] -0.057

MEGF9 (UniProt Q9H1U4)
inactive: [1] 0.025 | [2] 0.186 | [4] 0.055 | [5] -0.053

MED8 isoform 2 (UniProt Q96G25)
inactive: [1] 0.011 | [2] -0.053 | [5] 0.039
active: [3] -0.381

MED15 (UniProt Q96RN5)
inactive: [1] -0.037 | [2] 0.083 | [3] 0.093 | [4] -0.023 | [5] 0.038

METTL14 (UniProt Q9HCE5)
inactive: [1] -0.026 | [2] 0.001 | [3] -0.035 | [4] -0.02 | [5] 0.005

MDP1 (UniProt Q86V88)
inactive: [1] 0.01 | [2] 0.002 | [3] -0.028 | [4] 0.049 | [5] -0.001

MED6 (UniProt O75586)
inactive: [1] -0.109 | [2] -0.041 | [3] -0.209 | [5] 0.027

ME1 (UniProt P48163)
inactive: [1] 0.03 | [2] 0.047 | [3] -0.002 | [4] 0.017 | [5] 0.006

METTL25 (UniProt Q8N6Q8)
inactive: [1] -0.185 | [2] -0.09 | [3] 0.077 | [5] 0.043

MECR (UniProt Q9BV79)
inactive: [1] 0.034 | [2] 0.033 | [3] 0.042 | [4] -0.037 | [5] -0.026
